# Reference: the supplement of paper PMC10727501
# This is one part of the list. This data set is noisy: repeats of one test often differ as much as different tests do.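 Researchers measured free-swimming zebrafish larvae's O-bend response probability to dark flashes (naive: first five; training: remaining flashes of four 60-flash blocks; test: later 60-flash block) and OMR turning toward alternating leftward/rightward LED motion. Six treated larvae were compared to sixty 0.1% DMSO controls, with |SSMD|≥2 marking a hit.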
# Key:
# Settings in all cases: 10 µM; pre-incubation: 30-90 min
# [1] = test system: Danio rerio larvae (5 dpf, TLF); assay: OMR-Perf (SSMD vs DMSO vehicle); higher = higher than vehicle (e.g. higher dark-flash O-bend response probability, or better optomotor performance)
# [2] = test system: Danio rerio larvae (5 dpf, TLF); assay: Prob-Test (SSMD vs DMSO vehicle); higher = higher than vehicle (e.g. higher dark-flash O-bend response probability, or better optomotor performance)
# [3] = test system: Danio rerio larvae (5 dpf, TLF); assay: Prob-Naive (SSMD vs DMSO vehicle); higher = higher than vehicle (e.g. higher dark-flash O-bend response probability, or better optomotor performance)
# [4] = test system: Danio rerio larvae (5 dpf, TLF); assay: Prob-Train (SSMD vs DMSO vehicle); higher = higher than vehicle (e.g. higher dark-flash O-bend response probability, or better optomotor performance)
SMILES,OMR-Perf [1],Prob-Test [2],Prob-Naive [3],Prob-Train [4]
FC(F)c1nc2ccccc2n1-c1nc(N2CCOCC2)nc(N2CCOCC2)n1,0.151,-1.45,-1.75,-2.53
NC[C@H]1CC[C@@H](C(=O)O)CC1 [Tranexamic Acid],0.0904,-0.366,0.471,-0.362
N=C(N)NS(=O)(=O)c1ccc(N)cc1 [Sulfaguanidine],-0.124,0.335,0.506,0.356
COc1ccccc1OCC(O)CN1CCN(CC(=O)Nc2c(C)cccc2C)CC1 (stereo unspecified) [Ranolazine],-0.241,0.242,-0.0954,0.0729
NC1=N[C@@]2(c3cc(NC(=O)c4ccc(F)cn4)ccc3F)COC[C@@H]2CS1,-0.267,0.194,-0.385,0.425
Cc1ccc([C@@H]2O[C@H](CO)[C@@H](O)[C@H](O)[C@H]2O)cc1Cc1ccc(-c2ccc(F)cc2)s1 [Canagliflozin],0.41,-0.42,0.186,-0.492
CSc1ccc2c(c1)N(CCC1CCCCN1C)c1ccccc1S2.Cl (stereo unspecified) [Thioridazine HCl],-0.701,-1.27,0.271,-0.782
N.N.O=C([O-])C1(C(=O)[O-])CCC1.[Pt+2] [Carboplatin],-0.222,-0.173,-0.295,-0.2
S=c1nc[nH]c2nc[nH]c12 [Mercaptopurine (6-MP)],-0.243,-0.0525,0.459,0.0382
CC[C@H](C)C(=O)O[C@@H]1C[C@@H](C)C=C2C=C[C@H](C)[C@@H](CC[C@@H]3C[C@@H](O)CC(=O)O3)[C@H]21 [Lovastatin],-0.587,-1.7,-0.383,-1.26
COc1ccc(Cl)cc1C(=O)NCCc1ccc(S(=O)(=O)NC(=O)NC2CCCCC2)cc1 [Glyburide],-0.479,-0.147,-0.0545,-0.219
CCN1/C(=C/C(C)=O)Sc2ccc(OC)cc21,0.212,0.308,0.135,0.235
CCCCC1C(=O)N(c2ccccc2)N(c2ccccc2)C1=O [Phenylbutazone],0.698,0.145,-0.0365,-0.485
CC1(C)CCC(c2ccc(Cl)cc2)=C(CN2CCN(c3ccc(C(=O)NS(=O)(=O)c4ccc(N[C@H](CCN5CCOCC5)CSc5ccccc5)c(S(=O)(=O)C(F)(F)F)c4)cc3)CC2)C1 [ABT-263 (Navitoclax)],-0.11,0.313,-0.571,0.318
O=c1[nH]c(=O)n([C@H]2C[C@H](O)[C@@H](CO)O2)cc1I [Idoxuridine],0.0315,-0.0424,-0.183,0.0323
O=C(/C=C/C=C/c1ccc2c(c1)OCO2)N1CCCCC1 [Piperine],-0.722,-2,-2.4,-2.81
CN[C@@H]1[C@H](O[C@H]2[C@H](O[C@H]3[C@H](O)[C@@H](O)[C@@H](NC(=N)N)[C@@H](O)[C@@H]3NC(=N)N)O[C@@H](C)[C@@]2(O)C=O)O[C@H](CO)[C@H](O)[C@H]1O.CN[C@@H]1[C@H](O[C@H]2[C@H](O[C@H]3[C@H](O)[C@@H](O)[C@@H](NC(=N)N)[C@@H](O)[C@@H]3NC(=N)N)O[C@@H](C)[C@@]2(O)C=O)O[C@H](CO)[C@H](O)[C@H]1O.O=S(=O)(O)O.O=S(=O)(O)O.O=S(=O)(O)O [Streptomycin sulfate],0.753,-0.715,0.204,-0.242
CCc1cccc(CC)c1NC(=O)N1Cc2[nH]nc(NC(=O)c3ccc(N4CCN(C)CC4)cc3)c2C1,0.272,0.195,-0.0535,-0.229
CC(N/C(=N/C#N)Nc1ccncc1)C(C)(C)C (stereo unspecified) [Pinacidil],0.213,0.167,0.457,0.43
CNC(=O)c1ccc(N2C(=S)N(c3ccc(C#N)c(C(F)(F)F)c3)C(=O)C2(C)C)cc1F [Enzalutamide (MDV3100)],0.143,-0.35,0.459,-0.362
Cc1cc(NC(=O)Nc2ccc(N(C)C)cc2)c2cc(F)cc(F)c2n1,0.329,-0.639,-0.146,-0.682
CCOc1nc2cccc(C(=O)O)c2n1Cc1ccc(-c2ccccc2-c2nc(=O)o[nH]2)cc1 [Azilsartan],-0.395,-0.138,-0.319,-0.384

# Record cards, as listed above. Values in the order: OMR-Perf [1] | Prob-Test [2] | Prob-Naive [3] | Prob-Train [4]
# `Cc1ccc([C@@H]2O[C@H](CO)[C@@H](O)[C@H](O)[C@H]2O)cc1Cc1ccc(-c2ccc(F)cc2)s1` [Canagliflozin] in the list: 0.41 | -0.42 | 0.186 | -0.492
# `Cc1cc(NC(=O)Nc2ccc(N(C)C)cc2)c2cc(F)cc(F)c2n1` in the list: 0.329 | -0.639 | -0.146 | -0.682
# `N=C(N)NS(=O)(=O)c1ccc(N)cc1` [Sulfaguanidine] in the list: -0.124 | 0.335 | 0.506 | 0.356

# (next part)

SMILES,OMR-Perf [1],Prob-Test [2],Prob-Naive [3],Prob-Train [4]
C[C@@H]1[C@H](C)C[C@@H](C(=O)O)C2CC[C@]3(C)C(=CC[C@H]4[C@@]5(C)CC[C@H](O)C(C)(C)[C@@H]5CC[C@]43C)[C@H]21 (stereo partly specified) [Ursolic Acid],-0.917,0.00467,-0.617,-0.383
COCCCOc1cc(C[C@@H](C[C@H](N)[C@@H](O)C[C@H](C(=O)NCC(C)(C)C(N)=O)C(C)C)C(C)C)ccc1OC.COCCCOc1cc(C[C@@H](C[C@H](N)[C@@H](O)C[C@H](C(=O)NCC(C)(C)C(N)=O)C(C)C)C(C)C)ccc1OC.O=C(O)/C=C/C(=O)O [Aliskiren Hemifumarate],-0.203,-0.364,-0.0555,0.282
CC(C)OC(=O)C(C)(C)Oc1ccc(C(=O)c2ccc(Cl)cc2)cc1 [Fenofibrate],-0.563,-0.874,-2.99,-2.54
CCOC(=O)[C@H](CCc1ccccc1)N[C@@H](C)C(=O)N1CCC[C@H]1C(=O)O.O=C(O)/C=C\C(=O)O [Enalapril Maleate],0.0273,0.342,-0.0555,0.0685
C=C1c2cccc(O)c2C(=O)C2=C(O)[C@]3(O)C(=O)C(C(N)=O)=C(O)[C@H](N(C)C)[C@@H]3[C@H](O)[C@H]12.Cl [Methacycline HCl],-0.152,-0.69,0.402,0.0904
CC(=O)O[C@]12CO[C@@H]1C[C@H](O)[C@]1(C)C(=O)[C@H](O)C3=C(C)[C@H](OC(=O)[C@H](O)[C@@H](NC(=O)OC(C)(C)C)c4ccccc4)C[C@](O)([C@H](OC(=O)c4ccccc4)C21)C3(C)C (stereo partly specified) [Docetaxel],-0.0586,-0.226,-0.254,0.161
CO[C@H]1C[C@@H]2CC[C@@H](C)[C@@](O)(O2)C(=O)C(=O)N2CCCC[C@H]2C(=O)O[C@H]([C@H](C)C[C@@H]2CC[C@@H](OCCO)[C@H](OC)C2)CC(=O)[C@H](C)/C=C(\C)[C@@H](O)[C@@H](OC)C(=O)[C@H](C)C[C@H](C)/C=C/C=C/C=C/1C [Everolimus (RAD001)],0.0235,0.37,-0.29,0.299
COc1cc(N2CCC(N(C)C)CC2)ccc1Nc1ncc(Cl)c(Nc2ccccc2P(C)(C)=O)n1,0.357,0.0861,0.319,0.27
COc1cc(C)c(/C=C/C(C)=C/C=C/C(C)=C/C(=O)O)c(C)c1C [Acitretin],-0.232,-1.01,-0.0234,-0.901
CC[C@@H]1OC(=O)[C@@H](C)[C@@H](O[C@H]2C[C@@](C)(OC)[C@@H](O)[C@H](C)O2)[C@@H](C)[C@@H](O[C@@H]2O[C@@H](C)C[C@H](N(C)C)[C@H]2O)[C@@](C)(O)C[C@@H](C)[C@@H]2N[C@@H](COCCOC)OC([C@@H]2C)[C@]1(C)O [Dirithromycin],-0.519,-0.583,0.0902,-0.515
CC[C@@H]([C@H](C)O)n1ncn(-c2ccc(N3CCN(c4ccc(OC[C@@H]5CO[C@@](Cn6cncn6)(c6ccc(F)cc6F)C5)cc4)CC3)cc2)c1=O [Posaconazole],0.112,-0.523,0.573,-0.539
O=C(Oc1cc(S(=O)(=O)c2ccccc2)ccc1[N+](=O)[O-])c1ccc(Cl)cc1,-0.55,-0.929,-0.642,-1.2
COc1ccc(Cn2ccc3ccc(C(=O)NO)cc32)cc1,-0.104,-0.973,0.245,-0.8
O=C(O)c1cccc(-c2noc(-c3ccccc3F)n2)c1 [Ataluren (PTC124)],-0.47,-1.54,-0.905,-0.373
CCOCC(O)COc1ccc(NC(=O)CC[S+](C)C)cc1.Cc1ccc(S(=O)(=O)[O-])cc1 (stereo unspecified) [Suplatast Tosylate],0.068,-0.235,-0.327,0.0196
Oc1cccc(-c2nc(N3CCOCC3)c3oc4ncccc4c3n2)c1,0.135,0.78,0.255,-0.204
Cc1cc(Cn2cnc3c2C[C@@H](C(=O)O)N(C(=O)C(c2ccccc2)c2ccccc2)C3)ccc1N(C)C,0.323,0.316,0.147,0.459
Cc1cccc(N(C)C(=S)Oc2ccc3ccccc3c2)c1 [Tolnaftate],-1.17,-1.49,-3.55,-2.66
Nc1ccc(O)c(C(=O)O)c1 [Mesalamine],-0.315,-0.0518,0.454,-0.0793
Cl.Cl.NCCc1c[nH]cn1 [Histamine 2HCl],-0.293,-0.0995,0.389,0.198
CC(C)(O)c1ccccc1CC[C@@H](SCC1(CC(=O)[O-])CC1)c1cccc(/C=C/c2ccc3ccc(Cl)cc3n2)c1.[Na+] [Montelukast Sodium],-0.0994,-1.52,-0.932,-1.05
COc1ccc(-n2nc(C(N)=O)c3c2C(=O)N(c2ccc(N4CCCCC4=O)cc2)CC3)cc1 [Apixaban],0.538,0.324,-0.439,0.0158
